PubChem BioAssay (NCATS)
Inconclusive means that the source gave no clear call. Such entries were picked first, then a sample of the others. Potencies beside an inconclusive call are fits to weak or partial responses and may not hold up. Calls of active or inactive are those of the source. The call rests on the fitted dose curve; in most records, active means well fitted inhibition curve with a large enough effect; inconclusive means small, poorly fitted or top-dose-only effect, or effect the other way; inactive means no such curve, though single readings can be large or run the other way.

Assay: qHTS Assay for Inhibitors of Fructose-1,6-bisphosphate Aldolase from Giardia Lamblia: Giardia lamblia growth inhibition (AID 2785); further: nearly all actives have a fitted effect of over 70% in size
Settings: Giardia lamblia trophozoite growth inhibition; activity change, negative = inhibition: at 57.5 µM (top of the series)
How it was run: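 Whole-parasite growth test: Giardia WB trophozoites in TYI-S-33 (pH 7.0), 100 per well, incubated 48 h at 37C with compound. ATP content was read by ATPlite luminescence.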
On the % scale 0 is the no-effect control and ±100 the full control effect; potency means the concentration at half of the fitted maximal effect.

Potency, inconclusive:
O=C(Nc1nccs1)c1cn2ccccc2n1 31.6 µM [inhibitor, single point]
COc1cc(C(=O)NC(=S)Nc2nccs2)cc(OC)c1OC 126 µM [inhibitor, partial curve, poor fit]
CN(Cc1ccccc1)C(=S)NC(=O)c1cccs1 56.2 µM [inhibitor, single point]
CCC(=O)NNC(=S)NC(=O)c1ccc(C)cc1 5.01 µM [inhibitor, partial curve, poor fit]
Cc1ccc(C)c(/C=N/Nc2nc3ccccc3c(=O)n2O)c1 5010 µM [inhibitor, partial curve, poor fit]
O=C(CNC1CC1)Nc1cc(C(F)(F)F)ccc1Cl 39.8 µM [inhibitor, partial curve]
NC(=O)c1c(NC(=O)Cc2ccccc2)sc2c1CCN(Cc1ccccc1)C2 158 µM [inhibitor, single point]
COc1ccc(OC)c(N=c2ssnc2Cl)c1 447 µM [inhibitor, partial curve]
CC(=O)Nc1ccc2sc(NC(=O)CN3CCOCC3)nc2c1 200 µM [inhibitor, partial curve, poor fit]
CCOc1cc(C(=O)NC(=S)Nn2cnnc2)cc(OCC)c1OCC 44.7 µM [inhibitor, partial curve]
Cc1[nH]n(-c2ccccc2)c(=O)c1/C=N/O 79.4 µM [inhibitor, single point]
O=C(NC(=S)Nc1ccccn1)c1cccc([N+](=O)[O-])c1 70.8 µM [inhibitor, single point]
O=c1c2sccc2[nH]c(=S)n1-c1ccccc1 5.01 µM [inhibitor, single point]

A draw from above in order of number of heavy atoms, descending:
Potency, inconclusive:
CC(=O)Nc1ccc2sc(NC(=O)CN3CCOCC3)nc2c1 200 µM [inhibitor, partial curve, poor fit]
O=C(NC(=S)Nc1ccccn1)c1cccc([N+](=O)[O-])c1 70.8 µM [inhibitor, single point]
O=C(Nc1nccs1)c1cn2ccccc2n1 31.6 µM [inhibitor, single point]

Following part.

Potency, active:
COc1ccc(NC(=S)NC(=O)c2cccnc2)cc1 22.4 µM
Cc1n[nH]c(=O)nc1N/N=C/c1ccc(O)c([N+](=O)[O-])c1 14.1 µM
Cc1ccc2c(c1)C1CN(C)CCC1N2C(=S)NC(=O)c1ccc(Br)cc1 (stereo not given) 8.91 µM
O=C(N/N=C/C=C/c1cccc([N+](=O)[O-])c1)c1ccncc1 28.2 µM
c1ccc(CCN(Cc2ccccc2)C2CCN(C3CCCC3)CC2)cc1 44.7 µM

Activity change, negative = inhibition, inactive:
NC1=NN=C(N2N=C(c3ccc(Br)cc3)CC2(O)C(F)(F)F)n2ncnc2C1 (stereo not given) 14.3% [at 38.3 µM]
O=C(O)Cn1c2ccccc2c2n[nH]c(=S)nc21 19.3%
CCOc1ccc(/C(CCC(=O)O)=N/NC(=S)NC(C)C)cc1 -16.4%
CCOC(=O)CSC1=C(C#N)C(C)C2=C(CCCC2=O)N1 (stereo not given) -11.7% [at 10.4 µM]
CN(C)S(=O)(=O)c1cccc(C(=O)NC(=S)N(CCC#N)Cc2cccnc2)c1 6.2% [at 38.3 µM]
Cn1ncc(C(N)=O)c1NC(=S)NC(=O)c1ccc(Br)o1 -7.49% [at 10.4 µM]
S=c1[nH]nc(-c2ccccn2)n1/N=C/c1ccco1 7.05% [at 10.4 µM]
CCCN1CCC(N2CCN(c3ccc([N+](=O)[O-])cc3)CC2)CC1 -0.915% [at 10.4 µM]
CC(CN1CCCC1)OC(=O)c1ccc(Cl)cc1Cl (stereo not given) 18.1%
CNCCCNC(=O)c1ccc(/C=N/O)nc1 60.3%
Cc1cc(Cl)c(OCCOCCN2CCN(C)CC2)c(Br)c1 6.93% [at 10.4 µM]
N#Cc1ccc(N=c2ssnc2Cl)cc1 -7.51%
Cn1nnc(NC(=S)NC(=O)/C=C/c2ccco2)n1 -28.1% [at 38.3 µM]
O=C(NCCCN1CCCC1)[C@H](CSCc1ccccc1)N1Cc2ccccc2C1=O -3.35% [at 10.4 µM]
COC(=O)c1ccc(NC(=O)CN2CCN(CC#N)CC2)cc1 -5.37% [at 38.3 µM]
COc1ccc(N=NC2C(=O)N(c3ccccc3)N=C2C)cc1 (stereo not given) 6.96%
COc1ccc2c(c1OC)C(=O)N(c1nc(SC)n[nH]1)C2=O 19.1%

Activity change, negative = inhibition, inconclusive:
C/C(=N\NC(N)=S)c1cccnc1 38% [activator]
Cc1ccccc1NC(=S)NNC(=O)c1ccco1 56.6% [activator]
N#C/C(=C/c1ccco1)C(N)=S 58.2% [activator]
CN1CCN(CC(=O)Nc2ccc(S(=O)(=O)N(C)C)cc2)CC1 34.5% [activator]
CN(C)C(=O)CNc1n[nH]c(=S)[nH]c1=O 30.6% [activator]
